From PubChem BioAssay AID2685 (National Center for Advancing Translational Sciences (NCATS), 2010)
The other results are listed elsewhere or left out. These are further read-outs of the screen, such as a control signal, another cell line or another target. No call is given for them. Compounds called inactive in the main read-out are mostly missing here. Potencies come from curve fits of mixed quality, noted in brackets.

Assay: qHTS Assay for Lipid Storage Modulators in Drosophila S3 Cells;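 for cell number change: cells counted by Cell Tracker Red CMTPX staining in the red channel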
Conditions: BODIPY lipid droplet fluorescence, 18-24 h; for cell number change: measured here: cell count max response, cells fed with added oleic acid
Outline: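 Drosophila S3 cells loaded with oleic acid (400 uM, as added) and compounds at several concentrations; lipid droplets imaged by 488-nm laser-scanning cytometry, 500–530 nm intensity and object ratio to cell channel. Percent activity normalized to 20 uM Triacsin C.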

[1] = measured here: cell number channel AC50, cells fed with added oleic acid
[2] = measured here: lipid fluorescence (Fed channel) AC50, cells fed with added oleic acid

SMILES | cell number change [%] | AC50 [1] | AC50 [2]
Cc1ccc(S(=O)(=O)/N=C(/Nc2cccc(O)c2)c2ccccc2)cc1 | -11.8 | – | –
CCCC(=O)N1CCc2cc(OC)c(OC)cc2C1COc1ccccc1OC (centres undefined) | -48.9 | 10.3 µM [falling, partial curve] | 11.6 µM [falling, partial curve]
COc1cccc(CN(C)CC(=O)Nc2ccccc2N2CCOCC2)c1OC | -20.9 | – | 7.31 µM [falling, single point]
Cc1cccc(NC(=O)CN2C(=O)S/C(=C\c3ccccn3)C2=O)c1 | -45.5 | – | –
O=C(Nc1ccc2c(c1)OCCO2)c1ccncc1 | 3.77 | – | –
CC1(C)OC(=CC=Nc2ccc(Cl)cc2)OC1(C)C | -13.8 | – | 23.1 µM [falling, partial curve, poor fit]
O=C(CC1CCCCC1)N1CCN(c2ccccn2)CC1 | 10.7 | – | 1.16 µM [rising, partial curve]
Cc1cccc(CNS(=O)(=O)c2ccc(-c3ccc(=O)[nH]n3)s2)c1 | -16.7 | – | 0.0231 µM [rising, full curve]
O=C(CCC(=O)c1ccc(Cl)s1)Nc1ncccc1O | -16.2 | – | 2.06 µM [rising, full curve]
COc1ccc2c(c1OC)C(=O)OC2N1C(=O)CC[C@H]1C(=O)Nc1ccc(F)cc1F (some centres undefined) | 2.91 | – | –
NC(=O)N/N=C/c1ccc(-c2ccc(S(=O)(=O)Nc3ncccn3)cc2)o1 | -10 | – | –
O=C(COC(=O)C1(c2ccccc2F)CCCC1)NCc1ccc2c(c1)OCO2 | -32.8 | 29.1 µM [falling, single point] | 25.9 µM [falling, single point]
FC(F)(F)c1cccc(-c2ccc(-c3csnn3)o2)c1 | -31.4 | 16.4 µM [falling, partial curve, poor fit] | –
C=CCSc1nc(-c2ccccc2)c2cc(Cl)ccc2n1 | – | 0.92 µM [rising, partial curve] | 29.1 µM [rising, single point]
C1CCCC(NC2=NCCO2)CCC1 | -5.88 | – | 1.46 µM [falling, full curve, poor fit]
O=C(NC(=S)N1CCCC1)c1ccc(Cl)cc1 | -14.6 | – | 16.4 µM [falling, single point]
CCOc1ccc(-c2c(C(=O)N/N=C/c3ccoc3)nnn2-c2nonc2N)cc1 | -11.3 | – | –
CSc1ccc(CNCCN2CCOCC2)cc1 | -3.08 | – | –
CN(C)CCCN(CCCN(C)C)C(=S)Nc1ccc(S(=O)(=O)N2CCOCC2)cc1 | 4.44 | 0.00461 µM [rising, full curve, poor fit] | –
Cc1ccc(N(C)C(=O)CCS(=O)(=O)c2ccc3c(c2)oc(=O)n3C)cc1 | -8.02 | – | 7.31 µM [falling, partial curve]
O=C(/C=C/c1ccc(Cl)cc1Cl)OCC(=O)N1CCCC1 | 16.2 | – | 20.6 µM [rising, partial curve, poor fit]
c1ccc(Nc2nc(N3CCOCC3)c3ccccc3n2)cc1 | 21.9 | – | 29.1 µM [rising, single point]

Quoted at random: three records from the list, in no set order.
SMILES | cell number change [%] | AC50 [1] | AC50 [2]
O=C(COC(=O)C1(c2ccccc2F)CCCC1)NCc1ccc2c(c1)OCO2 | -32.8 | 29.1 µM [falling, single point] | 25.9 µM [falling, single point]
C1CCCC(NC2=NCCO2)CCC1 | -5.88 | – | 1.46 µM [falling, full curve, poor fit]
Cc1cccc(CNS(=O)(=O)c2ccc(-c3ccc(=O)[nH]n3)s2)c1 | -16.7 | – | 0.0231 µM [rising, full curve]

Continued.

SMILES | cell number change [%] | AC50 [1] | AC50 [2]
CC(C)c1ccc(NC(=O)C2CCC(CNC(=O)[C@@H]3Cc4ccccc4CN3)CC2)cc1 (some centres undefined) | -11.5 | – | 1.03 µM [rising, full curve]
CC(C)NC(=S)NN(c1ccccc1)c1ccccc1 | 51.7 | 8.2 µM [rising, partial curve] | 6.51 µM [rising, single point]
Cc1ccc(C(C)(C)C)c(SCC(=O)Nc2nnc(C)s2)c1 | 18 | – | –
C=CCn1c(=O)c(C(=O)NCc2ccccc2)c(O)c2ccccc21 | 1.82 | – | –
O=C1OCCC1Sc1nnc(-c2ccccc2Cl)n1Cc1ccccc1 (centres undefined) | – | 0.517 µM [rising, single point] | –
Nn1c(=O)c2ccccc2n2c(SCc3ccccc3)nnc12 | 210 | 0.58 µM [rising, single point] | 0.58 µM [rising, single point]
O=C(O)c1ccccc1Nc1ccc2nonc2c1[N+](=O)[O-] | -5.56 | – | –
COc1ccc(NS(=O)(=O)c2ccc(-c3cnc(C4CC4)o3)cc2)cc1OC | -15.3 | – | 2.06 µM [falling, partial curve, poor fit]
CCNC(=O)NC(=O)C(C)OC(=O)CNS(=O)(=O)c1c(Cl)cc(Br)cc1Cl (centres undefined) | -28.2 | – | –
CCN(CC(=O)Nc1ccccc1C(F)(F)F)C(=O)CCSc1ccc(F)cc1 | -15.7 | – | 4.11 µM [falling, full curve]
CCCCNC(=O)c1cn(CC)c2cc(N3CCN(C)CC3)c(F)cc2c1=O | 34.8 | 16.4 µM [rising, partial curve, poor fit] | 2.06 µM [rising, partial curve]
Cc1ccc(C)c(OCCC(=O)OCC(=O)NC2CCS(=O)(=O)C2)c1 (centres undefined) | -8.76 | – | –
Cc1ccc(C(=O)N/C(=C/c2ccco2)C(=O)NCCc2c[nH]c3ccccc23)cc1 | 3.81 | 5.17 µM [falling, single point] | 0.0058 µM [rising, full curve, poor fit]
CC1=CC(=O)O[C@@H]1[C@@]1(C)C[C@H]2OC(=O)C[C@H]3[C@@H](C)C(=O)C(O)=C1[C@@]23CO | -5.59 | – | 0.0366 µM [rising, full curve, poor fit]
Cc1ccc(NC(=O)CCC(=O)NNC(=O)c2ccccc2Cl)c(C)c1 | -2.64 | – | 29.1 µM [falling, single point]
CCOc1ccc(CCNC(=O)Cn2nc(C)n3cccc3c2=O)cc1OCC | -21.5 | – | 2.31 µM [rising, partial curve]
COc1cccc(NC(=S)NC(=O)c2cccnc2)c1 | 43.9 | 29.1 µM [rising, single point] | –
CCn1c(=O)[nH]c(=O)c2c(N)c(C(=O)c3cc(F)ccc3F)sc21 | 7.37 | – | 0.0058 µM [rising, full curve, poor fit]
COc1cc(-c2nc3ccc4ccccc4c3c3c2CCC3)cc(OC)c1OC | -3.86 | – | –
CCN(CC)CCNc1ncnc2c1sc1nc(N3CCOCC3)c3c(c12)CC(C)(C)SC3 | -26.2 | – | 0.82 µM [falling, full curve, poor fit]
COc1ccc2[nH]c3ccccc3c2c1 | -17.6 | – | –
Cc1ncc([N+](=O)[O-])n1CC(=O)Nc1ccc(F)cc1F | 9.72 | – | 0.58 µM [falling, single point]

SMILES | cell number change [%] | AC50 [1] | AC50 [2]
COC(=O)c1cn(CCC#N)nc1-c1ccc2ccccc2c1 | -25 | – | 4.11 µM [rising, partial curve]
CN1/C(=C\C(=O)COC(=O)Cn2nnc(-c3ccccc3)n2)C(C)(C)c2ccccc21 | -5.65 | – | 29.1 µM [rising, single point]
COC(=O)C1C2C=CC3(CN(Cc4ccco4)C(=O)C13)O2 (centres undefined) | -4.66 | – | –
O=C(NCc1ccccc1F)C1CCN(C(=O)Nc2ccc(F)cc2)CC1 | 13.3 | – | 29.1 µM [rising, single point]
COc1ccc(-c2ccc(SCC(=O)NCc3ccco3)nn2)cc1 | 0.415 | 0.411 µM [rising, full curve, poor fit] | 29.1 µM [rising, single point]
COC(=O)Cc1ccc(NC(=O)c2ccc3c(c2)C(=O)N(Cc2cccnc2)C3=O)cc1 | -18.6 | – | 29.1 µM [falling, single point]
COc1ccc(CCNC(=O)C(CC(C)C)NC(N)=O)cc1 (centres undefined) | -24.9 | – | –
CCCc1cc(=O)oc2c3c(c4c(c12)OC(C)(C)C=C4)OC(C)C(C)C3O (centres undefined) | -61.2 | 18.4 µM [falling, single point] | –
COCCN(CC(=O)NC1CCCCC1)C(=O)/C=C/C(=O)c1ccc(OC)cc1O | -11.5 | – | 1.46 µM [falling, full curve, poor fit]
CCOc1ccc(NC(=O)N2CCC(c3nc4ccccc4[nH]3)CC2)cc1 | 1.48 | 0.00651 µM [falling, full curve, poor fit] | –
COc1cccc(NC(=O)Cn2c(=O)c3c(ncn3Cc3ccccc3)n(Cc3ccccc3)c2=O)c1 | 107 | 1.64 µM [rising, full curve] | –
COc1ccc(-c2c(C)nc3c(-c4ccsc4)cnn3c2N)cc1 | -45.4 | 13 µM [falling, partial curve] | 14.6 µM [falling, single point]
CCOc1ccc(S(=O)(=O)NCCC(=O)OCC(=O)Nc2cc(C)on2)cc1 | -16.7 | – | 32.6 µM [falling, single point]
O=C1CSC(c2ccc([N+](=O)[O-])cc2)N1c1ccc(O)cc1 (centres undefined) | 10.6 | – | 0.58 µM [rising, single point]
CC(=O)N1c2ccc(F)c(F)c2C[C@H]1C | -17.5 | – | 29.1 µM [rising, single point]
Cc1ccc(N(CN2C(=O)c3ccccc3C2=O)C(=O)c2ccc([N+](=O)[O-])cc2[N+](=O)[O-])cc1 | -8.96 | – | 6.51 µM [rising, single point]
Cc1c(C(=O)NCc2ccc3c(c2)OCO3)cccc1[N+](=O)[O-] | 9.86 | – | 10.3 µM [rising, partial curve]
Cc1ccc(C(=O)NCC(=O)OC(C)C(=O)NC2CCCc3ccccc32)cc1 (centres undefined) | -16 | – | 6.51 µM [rising, single point]
CC1(C)N=C(N)N=C(N)N1c1cccc(C(=O)O)c1 | – | – | 20.6 µM [falling, partial curve]
COc1ccc(S(=O)(=O)c2c(N)n(Cc3ccco3)c3nc4ccccc4nc23)cc1 | 24.8 | 2.06 µM [rising, partial curve, poor fit] | 2.59 µM [rising, single point]
